The numbers were not newly measured in patent US20170027865A1, “Dry Pharmaceutical Compositions for Topical Delivery of Oral Medications, Nasal Delivery and to Treat Ear Disorders” (CMPD LICENSING LLC, priority 2013, published 2017), which cites them from elsewhere.

The structures appear in SMILES notation.

The data set relates to Mycoplasma pneumoniae. Conditions: Gram: n/a.

Consider `O=C(O)c1cn(C2CC2)c2cc(N3CCNCC3)c(F)cc2c1=O` [Ciprofloxacin, ciprofloxacin], for which the Expected coverage entry was “yes”.
